Reference: the supplement of paper PMC6411743
± gives the standard deviation of the averaged measurements. Only a part is listed here, and it is no random draw.

Amino acid sequences for entries named in this document (tags omitted). A change or cut given only in a name is not applied to a line headed by its entry.
UniProt Q14149: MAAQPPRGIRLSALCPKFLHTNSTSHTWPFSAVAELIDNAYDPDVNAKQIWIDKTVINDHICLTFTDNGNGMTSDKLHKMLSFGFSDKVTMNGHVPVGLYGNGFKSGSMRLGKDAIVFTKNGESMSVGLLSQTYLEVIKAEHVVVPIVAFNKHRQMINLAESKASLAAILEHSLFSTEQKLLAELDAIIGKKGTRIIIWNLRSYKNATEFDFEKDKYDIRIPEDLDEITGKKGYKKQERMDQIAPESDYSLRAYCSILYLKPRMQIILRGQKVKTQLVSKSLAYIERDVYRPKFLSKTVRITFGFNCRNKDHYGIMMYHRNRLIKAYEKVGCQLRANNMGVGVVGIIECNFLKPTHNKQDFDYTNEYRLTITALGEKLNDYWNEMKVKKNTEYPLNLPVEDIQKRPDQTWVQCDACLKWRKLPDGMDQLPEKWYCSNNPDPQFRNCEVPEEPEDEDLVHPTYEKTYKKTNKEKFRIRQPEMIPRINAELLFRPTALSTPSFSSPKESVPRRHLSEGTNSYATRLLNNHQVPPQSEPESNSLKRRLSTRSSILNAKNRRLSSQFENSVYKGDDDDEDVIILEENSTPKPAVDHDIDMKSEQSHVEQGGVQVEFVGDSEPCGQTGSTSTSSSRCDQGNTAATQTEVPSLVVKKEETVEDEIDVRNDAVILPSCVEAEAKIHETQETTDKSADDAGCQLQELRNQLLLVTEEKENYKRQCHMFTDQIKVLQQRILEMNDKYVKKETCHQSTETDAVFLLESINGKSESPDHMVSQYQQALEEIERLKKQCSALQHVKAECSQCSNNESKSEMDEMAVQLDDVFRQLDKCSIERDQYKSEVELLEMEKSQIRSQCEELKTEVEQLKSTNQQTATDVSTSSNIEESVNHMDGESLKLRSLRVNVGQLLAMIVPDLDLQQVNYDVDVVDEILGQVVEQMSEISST
UniProt Q14847: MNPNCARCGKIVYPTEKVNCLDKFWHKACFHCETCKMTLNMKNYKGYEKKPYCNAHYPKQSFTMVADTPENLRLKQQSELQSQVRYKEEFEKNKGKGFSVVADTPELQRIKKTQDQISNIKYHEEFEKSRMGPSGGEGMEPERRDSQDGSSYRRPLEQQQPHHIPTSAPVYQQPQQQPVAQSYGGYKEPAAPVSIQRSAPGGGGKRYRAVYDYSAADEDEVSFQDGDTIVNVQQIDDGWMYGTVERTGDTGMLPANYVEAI
UniProt Q16877: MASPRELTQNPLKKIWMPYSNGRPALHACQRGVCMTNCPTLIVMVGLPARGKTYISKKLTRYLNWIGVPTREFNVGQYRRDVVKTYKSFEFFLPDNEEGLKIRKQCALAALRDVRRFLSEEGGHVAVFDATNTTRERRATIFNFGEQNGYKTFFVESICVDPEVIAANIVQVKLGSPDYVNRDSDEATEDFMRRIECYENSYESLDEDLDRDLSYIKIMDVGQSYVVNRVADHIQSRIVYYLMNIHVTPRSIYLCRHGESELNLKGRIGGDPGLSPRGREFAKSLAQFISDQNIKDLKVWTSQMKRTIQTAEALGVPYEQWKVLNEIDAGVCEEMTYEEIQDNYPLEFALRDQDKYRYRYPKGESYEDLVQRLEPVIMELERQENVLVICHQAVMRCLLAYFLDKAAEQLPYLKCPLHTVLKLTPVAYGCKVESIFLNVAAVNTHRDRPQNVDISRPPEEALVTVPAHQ
UniProt Q14166: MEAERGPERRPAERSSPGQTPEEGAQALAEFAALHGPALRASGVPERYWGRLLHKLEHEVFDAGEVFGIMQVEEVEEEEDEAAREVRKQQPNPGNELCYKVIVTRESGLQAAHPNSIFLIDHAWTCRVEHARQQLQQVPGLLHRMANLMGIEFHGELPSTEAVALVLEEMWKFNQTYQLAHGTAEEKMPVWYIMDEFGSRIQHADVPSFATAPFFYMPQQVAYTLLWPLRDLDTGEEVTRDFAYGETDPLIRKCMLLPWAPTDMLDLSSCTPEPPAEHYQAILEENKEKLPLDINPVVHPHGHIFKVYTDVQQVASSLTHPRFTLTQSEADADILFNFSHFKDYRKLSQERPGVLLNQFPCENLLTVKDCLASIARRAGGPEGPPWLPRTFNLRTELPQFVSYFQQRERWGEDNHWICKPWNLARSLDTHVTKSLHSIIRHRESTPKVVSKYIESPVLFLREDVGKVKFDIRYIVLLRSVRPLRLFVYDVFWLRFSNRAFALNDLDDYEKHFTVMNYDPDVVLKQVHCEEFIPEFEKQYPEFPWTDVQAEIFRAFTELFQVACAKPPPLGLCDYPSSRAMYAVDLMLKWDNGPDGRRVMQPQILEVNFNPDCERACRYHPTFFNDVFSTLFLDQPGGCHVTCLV
UniProt Q2NKX9: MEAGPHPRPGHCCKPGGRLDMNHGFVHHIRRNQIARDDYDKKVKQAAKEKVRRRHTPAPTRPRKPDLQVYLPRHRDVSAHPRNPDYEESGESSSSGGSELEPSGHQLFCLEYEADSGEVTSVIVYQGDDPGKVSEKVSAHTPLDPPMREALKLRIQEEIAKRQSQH
UniProt Q15120, whole entry, looked up: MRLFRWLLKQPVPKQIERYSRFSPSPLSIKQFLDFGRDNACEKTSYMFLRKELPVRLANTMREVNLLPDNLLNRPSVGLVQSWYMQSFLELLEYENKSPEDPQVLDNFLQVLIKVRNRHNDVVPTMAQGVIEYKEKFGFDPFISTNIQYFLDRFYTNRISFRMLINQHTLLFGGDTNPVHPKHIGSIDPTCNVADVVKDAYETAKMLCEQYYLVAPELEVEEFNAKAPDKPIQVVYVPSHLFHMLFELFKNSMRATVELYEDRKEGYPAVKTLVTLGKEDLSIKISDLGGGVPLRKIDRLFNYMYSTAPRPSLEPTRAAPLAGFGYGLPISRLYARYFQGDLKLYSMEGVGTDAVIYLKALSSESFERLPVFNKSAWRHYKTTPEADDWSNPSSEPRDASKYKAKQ
UniProt Q15773: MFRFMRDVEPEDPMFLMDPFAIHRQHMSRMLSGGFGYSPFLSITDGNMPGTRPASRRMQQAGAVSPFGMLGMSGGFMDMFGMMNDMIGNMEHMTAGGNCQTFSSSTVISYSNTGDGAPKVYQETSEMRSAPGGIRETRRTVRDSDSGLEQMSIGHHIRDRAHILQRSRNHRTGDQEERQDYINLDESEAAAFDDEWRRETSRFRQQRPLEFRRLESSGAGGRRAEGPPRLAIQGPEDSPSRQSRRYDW
UniProt Q3ZCQ8: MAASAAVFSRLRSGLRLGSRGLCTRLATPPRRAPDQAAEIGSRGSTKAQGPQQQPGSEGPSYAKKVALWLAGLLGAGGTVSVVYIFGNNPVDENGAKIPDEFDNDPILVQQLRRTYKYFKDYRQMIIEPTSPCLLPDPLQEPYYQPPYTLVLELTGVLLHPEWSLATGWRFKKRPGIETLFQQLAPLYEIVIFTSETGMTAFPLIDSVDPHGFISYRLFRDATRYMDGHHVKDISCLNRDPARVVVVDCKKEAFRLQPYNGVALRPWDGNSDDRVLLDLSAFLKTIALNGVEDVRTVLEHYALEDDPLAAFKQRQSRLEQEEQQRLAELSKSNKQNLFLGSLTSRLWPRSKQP
UniProt Q3B726, whole entry: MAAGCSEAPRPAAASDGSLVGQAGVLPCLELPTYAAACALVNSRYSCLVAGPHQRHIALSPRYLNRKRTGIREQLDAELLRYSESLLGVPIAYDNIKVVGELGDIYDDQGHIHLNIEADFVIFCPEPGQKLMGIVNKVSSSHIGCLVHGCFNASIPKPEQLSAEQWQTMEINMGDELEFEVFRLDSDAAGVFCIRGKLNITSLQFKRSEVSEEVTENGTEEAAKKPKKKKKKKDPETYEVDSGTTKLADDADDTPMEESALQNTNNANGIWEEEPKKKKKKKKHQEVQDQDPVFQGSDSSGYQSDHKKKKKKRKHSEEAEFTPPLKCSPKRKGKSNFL
UniProt Q15208: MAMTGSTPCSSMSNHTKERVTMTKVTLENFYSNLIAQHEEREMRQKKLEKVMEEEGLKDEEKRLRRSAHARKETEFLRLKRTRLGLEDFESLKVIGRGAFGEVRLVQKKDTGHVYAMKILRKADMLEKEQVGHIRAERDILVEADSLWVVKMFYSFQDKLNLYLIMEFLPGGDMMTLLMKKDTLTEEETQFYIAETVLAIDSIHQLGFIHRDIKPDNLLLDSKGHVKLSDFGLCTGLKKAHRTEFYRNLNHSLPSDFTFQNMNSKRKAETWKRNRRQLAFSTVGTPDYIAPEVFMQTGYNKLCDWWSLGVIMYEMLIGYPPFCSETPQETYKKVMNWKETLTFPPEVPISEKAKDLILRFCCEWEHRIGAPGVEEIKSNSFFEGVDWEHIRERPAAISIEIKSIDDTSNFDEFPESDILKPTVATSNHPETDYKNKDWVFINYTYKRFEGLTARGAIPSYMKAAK
UniProt Q16864, whole entry: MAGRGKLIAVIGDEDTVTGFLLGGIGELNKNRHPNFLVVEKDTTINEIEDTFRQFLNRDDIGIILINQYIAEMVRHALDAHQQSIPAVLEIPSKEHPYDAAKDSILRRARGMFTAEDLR
UniProt Q1ED39: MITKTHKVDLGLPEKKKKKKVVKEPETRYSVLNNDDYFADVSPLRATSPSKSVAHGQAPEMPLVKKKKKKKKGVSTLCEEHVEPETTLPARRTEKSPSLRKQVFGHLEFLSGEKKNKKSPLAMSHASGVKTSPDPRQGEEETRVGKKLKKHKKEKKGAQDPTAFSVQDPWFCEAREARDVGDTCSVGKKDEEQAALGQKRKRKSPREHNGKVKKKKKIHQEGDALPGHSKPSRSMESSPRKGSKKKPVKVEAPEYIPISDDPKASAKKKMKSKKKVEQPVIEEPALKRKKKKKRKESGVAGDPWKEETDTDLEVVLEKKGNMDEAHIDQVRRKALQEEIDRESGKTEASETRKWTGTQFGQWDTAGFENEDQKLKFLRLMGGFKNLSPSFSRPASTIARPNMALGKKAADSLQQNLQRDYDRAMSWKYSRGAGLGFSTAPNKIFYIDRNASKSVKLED
UniProt Q2TAL8: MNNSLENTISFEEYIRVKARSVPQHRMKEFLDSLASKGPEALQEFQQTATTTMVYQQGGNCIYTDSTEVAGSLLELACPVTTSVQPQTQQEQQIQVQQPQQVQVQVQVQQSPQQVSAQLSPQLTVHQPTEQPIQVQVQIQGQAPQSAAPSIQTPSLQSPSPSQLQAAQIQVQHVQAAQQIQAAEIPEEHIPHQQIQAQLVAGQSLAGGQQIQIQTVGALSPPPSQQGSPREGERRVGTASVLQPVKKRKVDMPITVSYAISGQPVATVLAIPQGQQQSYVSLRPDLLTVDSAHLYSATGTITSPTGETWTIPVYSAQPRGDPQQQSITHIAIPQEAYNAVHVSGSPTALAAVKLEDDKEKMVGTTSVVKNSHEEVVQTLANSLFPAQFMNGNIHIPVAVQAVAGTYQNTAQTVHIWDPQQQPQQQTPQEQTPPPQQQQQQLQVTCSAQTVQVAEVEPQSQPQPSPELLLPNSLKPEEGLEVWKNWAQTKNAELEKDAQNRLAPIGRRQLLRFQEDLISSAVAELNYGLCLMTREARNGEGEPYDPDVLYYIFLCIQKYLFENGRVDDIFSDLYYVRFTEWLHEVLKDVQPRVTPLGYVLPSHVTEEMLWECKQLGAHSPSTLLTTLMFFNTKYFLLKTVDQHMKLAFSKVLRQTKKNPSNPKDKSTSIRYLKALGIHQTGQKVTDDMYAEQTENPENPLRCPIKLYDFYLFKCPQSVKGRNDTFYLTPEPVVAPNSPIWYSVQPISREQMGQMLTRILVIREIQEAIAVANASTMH
UniProt Q17R31: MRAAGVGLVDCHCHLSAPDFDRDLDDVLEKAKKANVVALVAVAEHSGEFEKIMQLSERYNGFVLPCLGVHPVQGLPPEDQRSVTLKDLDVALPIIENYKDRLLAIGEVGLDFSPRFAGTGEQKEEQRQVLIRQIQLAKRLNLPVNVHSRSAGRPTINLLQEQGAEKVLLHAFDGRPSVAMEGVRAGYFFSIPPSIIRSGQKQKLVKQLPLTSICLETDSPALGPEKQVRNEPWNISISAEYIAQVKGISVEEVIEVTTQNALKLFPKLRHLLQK
UniProt Q15545, whole entry: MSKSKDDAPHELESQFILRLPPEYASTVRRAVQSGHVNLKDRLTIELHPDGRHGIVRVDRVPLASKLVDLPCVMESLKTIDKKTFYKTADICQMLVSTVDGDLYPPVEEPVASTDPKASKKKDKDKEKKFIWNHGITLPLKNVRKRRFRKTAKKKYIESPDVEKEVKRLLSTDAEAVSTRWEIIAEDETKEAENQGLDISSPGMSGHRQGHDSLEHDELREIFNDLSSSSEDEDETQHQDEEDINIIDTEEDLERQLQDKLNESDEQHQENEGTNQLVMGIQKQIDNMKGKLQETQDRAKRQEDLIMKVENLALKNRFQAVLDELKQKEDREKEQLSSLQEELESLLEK

Compound: Nc1ncnc2c1ncn2[C@@H]1O[C@H](COP(=O)(O)OP(=O)(O)OP(=O)(O)O)[C@@H](O)[C@H]1O [adenosine triphosphate]
Test: NP40-soluble protein abundance relative to vehicle (solubility fold change) (ratio); higher = more soluble protein in presence of ATP
Outline: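 Jurkat crude lysate prepared with a Dounce homogeniser was treated at eight concentrations spanning 0.1 to 10 mM, 10 min at room temperature then 3 min at 37 °C. Solubilisation with 0.8% NP40 and benzonase and ultracentrifugation preceded TMT labelling of the supernatant for LC-MS/MS. Fold change against the detergent-processed vehicle was determined per replicate from vsn-normalised intensities, across three independent experiments.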

Target	NP40-soluble protein abundance (concentration: 1mM)	NP40-soluble protein abundance (concentration: 2mM)	NP40-soluble protein abundance (concentration: 4mM)	NP40-soluble protein abundance (concentration: 6mM)	NP40-soluble protein abundance (concentration: 8mM)	NP40-soluble protein abundance (concentration: 10mM)
ATP6AP1 (UniProt Q15904)	0.94 ± 0.067	0.945 ± 0.051	0.955 ± 0.046	0.909 ± 0.041	0.918 ± 0.063	0.933 ± 0.071
SUZ12 (UniProt Q15022)	1.21 ± 0.074	1.17 ± 0.03	1.24 ± 0.053	1.23 ± 0.069	1.32 ± 0.076	1.34 ± 0.076
MORC3 (UniProt Q14149)	1.01 ± 0.027	1.02 ± 0.016	1.003 ± 0.006	1.007 ± 0.0076	0.993 ± 0.011	1.007 ± 0.0061
LASP1 (UniProt Q14847)	0.937 ± 0.023	0.9319 ± 0.0024	0.865 ± 0.0094	0.972 ± 0.018	0.889 ± 0.052	0.885 ± 0.024
UniProt Q15291 and related entries	0.982 ± 0.03	0.996 ± 0.011	0.98 ± 0.04	0.972 ± 0.046	1 ± 0.022	1.01 ± 0.018
UniProt Q16659	0.99 ± 0.14	0.971 ± 0.13	1.03 ± 0.097	1.02 ± 0.12	1.07 ± 0.17	1.02 ± 0.097
PTPRCAP (UniProt Q14761)	0.823 ± 0.018	0.84 ± 0.054	0.839 ± 0.077	0.784 ± 0.083	0.795 ± 0.035	0.83 ± 0.061
HSDL1 (UniProt Q3SXM5)	1.09 ± 0.24	0.968 ± 0.19	0.967 ± 0.16	0.806 ± 0.2	1.02 ± 0.043	0.983 ± 0.079
UniProt Q16877 and related entries	1 ± 0.095	0.926 ± 0.17	1 ± 0.045	0.972 ± 0.07	0.991 ± 0.1	0.967 ± 0.043
TTLL12 (UniProt Q14166)	1.07 ± 0.056	1.04 ± 0.061	1.03 ± 0.055	0.981 ± 0.098	1.05 ± 0.067	1.01 ± 0.059
UniProt Q15642-2|Q15642-3|Q15642-4|W4VSQ9	0.958 ± 0.066	0.969 ± 0.084	0.998 ± 0.058	0.979 ± 0.078	0.961 ± 0.021	0.9861 ± 0.0047
ELAVL1 (UniProt Q15717)	0.987 ± 0.034	0.965 ± 0.029	0.935 ± 0.012	0.996 ± 0.031	0.974 ± 0.018	0.973 ± 0.036
UniProt Q15788 and related entries	0.935 ± 0.029	0.984 ± 0.059	0.942 ± 0.031	0.974 ± 0.031	0.913 ± 0.025	0.931 ± 0.04
DHX34 (UniProt Q14147)	1.29 ± 0.25	1.38 ± 0.21	1.28 ± 0.23	1.38 ± 0.14	1.34 ± 0.17	1.38 ± 0.17
UniProt Q16512 and related entries	0.978 ± 0.02	0.974 ± 0.018	0.958 ± 0.02	0.988 ± 0.041	0.953 ± 0.034	0.951 ± 0.024
WTAP (UniProt Q15007)	1.03 ± 0.085	1.03 ± 0.054	1.06 ± 0.056	1.1 ± 0.12	1.07 ± 0.042	1.01 ± 0.085
PPA1 (UniProt Q15181)	0.985 ± 0.014	0.993 ± 0.011	0.947 ± 0.027	1.01 ± 0.041	0.951 ± 0.045	0.948 ± 0.039
C2orf68 (UniProt Q2NKX9)	0.951 ± 0.047	0.943 ± 0.026	1.01 ± 0.043	0.978 ± 0.016	0.944 ± 0.042	0.94 ± 0.042
FRG1 (UniProt Q14331)	1.13 ± 0.015	1.14 ± 0.038	1.12 ± 0.05	1.21 ± 0.058	1.18 ± 0.061	1.18 ± 0.037
TAF9 (UniProt Q16594)	1.08 ± 0.025	1.16 ± 0.031	1.01 ± 0.14	1.02 ± 0.24	1.09 ± 0.069	0.973 ± 0.093

Single records, from the list above.
FRG1 (UniProt Q14331) is listed as NP40-soluble protein abundance (concentration: 1mM): 1.13 ± 0.015; NP40-soluble protein abundance (concentration: 2mM): 1.14 ± 0.038; NP40-soluble protein abundance (concentration: 4mM): 1.12 ± 0.05; NP40-soluble protein abundance (concentration: 6mM): 1.21 ± 0.058; NP40-soluble protein abundance (concentration: 8mM): 1.18 ± 0.061; NP40-soluble protein abundance (concentration: 10mM): 1.18 ± 0.037
TAF9 (UniProt Q16594) is listed as NP40-soluble protein abundance (concentration: 1mM): 1.08 ± 0.025; NP40-soluble protein abundance (concentration: 2mM): 1.16 ± 0.031; NP40-soluble protein abundance (concentration: 4mM): 1.01 ± 0.14; NP40-soluble protein abundance (concentration: 6mM): 1.02 ± 0.24; NP40-soluble protein abundance (concentration: 8mM): 1.09 ± 0.069; NP40-soluble protein abundance (concentration: 10mM): 0.973 ± 0.093
WTAP (UniProt Q15007) is listed as NP40-soluble protein abundance (concentration: 1mM): 1.03 ± 0.085; NP40-soluble protein abundance (concentration: 2mM): 1.03 ± 0.054; NP40-soluble protein abundance (concentration: 4mM): 1.06 ± 0.056; NP40-soluble protein abundance (concentration: 6mM): 1.1 ± 0.12; NP40-soluble protein abundance (concentration: 8mM): 1.07 ± 0.042; NP40-soluble protein abundance (concentration: 10mM): 1.01 ± 0.085
SUZ12 (UniProt Q15022) is listed as NP40-soluble protein abundance (concentration: 1mM): 1.21 ± 0.074; NP40-soluble protein abundance (concentration: 2mM): 1.17 ± 0.03; NP40-soluble protein abundance (concentration: 4mM): 1.24 ± 0.053; NP40-soluble protein abundance (concentration: 6mM): 1.23 ± 0.069; NP40-soluble protein abundance (concentration: 8mM): 1.32 ± 0.076; NP40-soluble protein abundance (concentration: 10mM): 1.34 ± 0.076

Following part:

Target	NP40-soluble protein abundance (concentration: 1mM)	NP40-soluble protein abundance (concentration: 2mM)	NP40-soluble protein abundance (concentration: 4mM)	NP40-soluble protein abundance (concentration: 6mM)	NP40-soluble protein abundance (concentration: 8mM)	NP40-soluble protein abundance (concentration: 10mM)
UniProt Q15120 and related entries	1.4 ± 0.15	1.39 ± 0.2	1.45 ± 0.19	1.38 ± 0.16	1.53 ± 0.23	1.47 ± 0.23
UniProt Q16539 and related entries	0.983 ± 0.062	0.973 ± 0.072	0.986 ± 0.022	0.923 ± 0.11	0.98 ± 0.057	0.958 ± 0.037
EIF3A (UniProt Q14152)	1.02 ± 0.077	1.06 ± 0.098	1.19 ± 0.11	1.35 ± 0.15	1.48 ± 0.11	1.64 ± 0.13
UniProt Q3MHD2 and related entries	1.01 ± 0.046	1.025 ± 0.0053	0.996 ± 0.052	1.05 ± 0.028	1.06 ± 0.041	1.05 ± 0.034
UBE3C (UniProt Q15386)	1.03 ± 0.18	0.968 ± 0.075	0.984 ± 0.071	0.883 ± 0.13	0.966 ± 0.037	0.987 ± 0.017
UniProt Q14558-2|Q14558	1.07 ± 0.14	1.02 ± 0.074	0.996 ± 0.076	0.97 ± 0.086	1.02 ± 0.07	1.02 ± 0.085
UniProt Q15286 and related entries	0.938 ± 0.19	0.998 ± 0.061	1.01 ± 0.081	0.973 ± 0.069	0.998 ± 0.059	0.972 ± 0.058
MLF2 (UniProt Q15773)	0.785 ± 0.09	0.729 ± 0.018	0.717 ± 0.027	0.713 ± 0.021	0.712 ± 0.014	0.732 ± 0.045
UniProt Q15084 and related entries	0.874 ± 0.033	0.876 ± 0.046	0.876 ± 0.024	0.903 ± 0.021	0.8855 ± 0.0043	0.895 ± 0.043
TRIP13 (UniProt Q15645)	1.02 ± 0.074	1 ± 0.032	0.989 ± 0.061	0.933 ± 0.079	1.01 ± 0.031	0.994 ± 0.02
SLMAP (UniProt Q14BN4)	0.972 ± 0.053	0.971 ± 0.038	0.971 ± 0.037	1 ± 0.076	0.95 ± 0.033	0.966 ± 0.024
UniProt Q3ZCQ8 and related entries	1 ± 0.082	0.978 ± 0.078	0.997 ± 0.073	0.97 ± 0.066	0.993 ± 0.081	0.986 ± 0.074
UniProt Q16851 and related entries	0.97 ± 0.015	0.9543 ± 0.005	0.929 ± 0.028	0.948 ± 0.036	0.95 ± 0.015	0.952 ± 0.032
IAH1 (UniProt Q2TAA2)	1 ± 0.025	1.02 ± 0.043	0.963 ± 0.028	0.943 ± 0.11	0.9928 ± 0.0054	0.939 ± 0.038
TWISTNB (UniProt Q3B726)	1.08 ± 0.033	1.17 ± 0.087	1.24 ± 0.18	1.18 ± 0.28	1.25 ± 0.16	1.28 ± 0.12
UniProt Q15208	1.1 ± 0.059	1.06 ± 0.064	1.09 ± 0.043	1.04 ± 0.09	1.1 ± 0.033	1.08 ± 0.023
UniProt Q15042 and related entries	1.01 ± 0.015	0.998 ± 0.016	0.993 ± 0.017	0.972 ± 0.013	0.974 ± 0.021	0.978 ± 0.037
UniProt Q3L8U1 and related entries	1.03 ± 0.08	1.09 ± 0.12	1.1 ± 0.053	1 ± 0.057	0.989 ± 0.097	1.03 ± 0.14
UniProt Q15262-2|Q15262-3|Q15262 and related entries	0.988 ± 0.028	0.972 ± 0.018	0.987 ± 0.021	0.967 ± 0.035	0.97 ± 0.023	0.944 ± 0.013
UniProt Q3V6T2 and related entries	1.01 ± 0.049	1 ± 0.038	0.987 ± 0.022	1.02 ± 0.05	0.984 ± 0.027	0.983 ± 0.027

Target	NP40-soluble protein abundance (concentration: 1mM)	NP40-soluble protein abundance (concentration: 2mM)	NP40-soluble protein abundance (concentration: 4mM)	NP40-soluble protein abundance (concentration: 6mM)	NP40-soluble protein abundance (concentration: 8mM)	NP40-soluble protein abundance (concentration: 10mM)
KIF14 (UniProt Q15058)	0.976 ± 0.12	1.01 ± 0.14	0.986 ± 0.12	1.03 ± 0.15	1 ± 0.11	1.05 ± 0.16
UniProt Q16864 and related entries	1.01 ± 0.072	1.01 ± 0.045	0.938 ± 0.036	1.02 ± 0.069	0.975 ± 0.051	0.913 ± 0.035
UniProt Q15223	0.926 ± 0.087	0.91 ± 0.071	0.952 ± 0.038	0.983 ± 0.061	0.901 ± 0.053	0.88 ± 0.086
ACSF3 (UniProt Q4G176)	1.05 ± 0.15	1.05 ± 0.14	1 ± 0.088	0.923 ± 0.2	1.04 ± 0.062	1.02 ± 0.088
POLA2 (UniProt Q14181)	0.983 ± 0.067	0.95 ± 0.045	0.967 ± 0.042	0.946 ± 0.059	0.972 ± 0.027	0.982 ± 0.015
COX19 (UniProt Q49B96)	0.971 ± 0.097	1.02 ± 0.1	0.969 ± 0.11	1.06 ± 0.13	0.869 ± 0.026	0.906 ± 0.071
STXBP2 (UniProt Q15833)	0.957 ± 0.033	0.962 ± 0.015	0.935 ± 0.046	0.951 ± 0.059	0.961 ± 0.035	0.945 ± 0.021
UniProt Q2M296 and related entries	1.08 ± 0.053	1.14 ± 0.065	1.2 ± 0.11	1.15 ± 0.036	1.18 ± 0.059	1.25 ± 0.14
NDUFA9 (UniProt Q16795)	1.06 ± 0.15	1 ± 0.093	0.991 ± 0.075	0.934 ± 0.082	1.04 ± 0.059	0.99 ± 0.078
UniProt Q1ED39	1.02 ± 0.076	1.04 ± 0.072	1.12 ± 0.032	1.21 ± 0.051	1.238 ± 0.011	1.33 ± 0.046
QRICH1 (UniProt Q2TAL8)	0.995 ± 0.034	0.971 ± 0.013	0.967 ± 0.018	0.966 ± 0.028	0.9545 ± 0.0078	0.98 ± 0.027
DPYSL2 (UniProt Q16555)	1.02 ± 0.02	0.994 ± 0.02	0.979 ± 0.031	0.979 ± 0.035	0.987 ± 0.035	0.97 ± 0.041
UniProt Q14669-2|Q14669-3	1.22 ± 0.013	1.28 ± 0.015	1.37 ± 0.024	1.39 ± 0.025	1.46 ± 0.015	1.46 ± 0.044
UniProt Q14814-4	0.916 ± 0.077	0.954 ± 0.024	0.981 ± 0.034	0.939 ± 0.052	0.904 ± 0.022	0.913 ± 0.049
UniProt Q3YEC7 and related entries	0.947 ± 0.011	0.939 ± 0.017	0.922 ± 0.026	0.9372 ± 0.0047	0.9061 ± 0.005	0.9121 ± 0.0072
UniProt Q17R31 and related entries	0.986 ± 0.013	1.01 ± 0.027	1.03 ± 0.024	1.01 ± 0.012	1.02 ± 0.026	1.04 ± 0.04
UniProt Q16206 and related entries	1.06 ± 0.069	1.002 ± 0.01	1.07 ± 0.036	1.02 ± 0.051	0.963 ± 0.042	0.928 ± 0.084
TAF7 (UniProt Q15545)	1.03 ± 0.056	1.03 ± 0.02	1.03 ± 0.041	1.07 ± 0.11	1.04 ± 0.034	1.05 ± 0.016
UniProt Q4G148 and related entries	0.881 ± 0.056	0.9 ± 0.011	0.9022 ± 0.0037	0.854 ± 0.081	0.863 ± 0.066	0.894 ± 0.014
UniProt Q32MZ4 and related entries	0.958 ± 0.064	0.939 ± 0.031	0.917 ± 0.015	0.984 ± 0.063	0.915 ± 0.018	0.899 ± 0.015
